# Some of the results follow. The list holds hits alone, and they repeat only in part.
# Amino acid sequences for entries named in this document (tags omitted).
# CALR, P27797, UniProt P27797, whole entry: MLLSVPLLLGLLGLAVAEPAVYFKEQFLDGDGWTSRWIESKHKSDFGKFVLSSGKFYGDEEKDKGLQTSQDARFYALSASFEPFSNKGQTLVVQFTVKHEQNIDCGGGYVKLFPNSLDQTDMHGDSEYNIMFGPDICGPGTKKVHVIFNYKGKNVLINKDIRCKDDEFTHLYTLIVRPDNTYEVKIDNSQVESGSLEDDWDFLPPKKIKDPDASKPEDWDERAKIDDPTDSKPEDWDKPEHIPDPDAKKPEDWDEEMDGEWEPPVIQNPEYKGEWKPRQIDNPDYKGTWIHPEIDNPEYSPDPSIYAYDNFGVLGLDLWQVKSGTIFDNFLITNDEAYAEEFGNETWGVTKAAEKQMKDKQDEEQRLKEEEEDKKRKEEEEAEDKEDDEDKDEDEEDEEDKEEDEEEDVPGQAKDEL
# PPP2R5D, Q14738, UniProt Q14738, whole entry: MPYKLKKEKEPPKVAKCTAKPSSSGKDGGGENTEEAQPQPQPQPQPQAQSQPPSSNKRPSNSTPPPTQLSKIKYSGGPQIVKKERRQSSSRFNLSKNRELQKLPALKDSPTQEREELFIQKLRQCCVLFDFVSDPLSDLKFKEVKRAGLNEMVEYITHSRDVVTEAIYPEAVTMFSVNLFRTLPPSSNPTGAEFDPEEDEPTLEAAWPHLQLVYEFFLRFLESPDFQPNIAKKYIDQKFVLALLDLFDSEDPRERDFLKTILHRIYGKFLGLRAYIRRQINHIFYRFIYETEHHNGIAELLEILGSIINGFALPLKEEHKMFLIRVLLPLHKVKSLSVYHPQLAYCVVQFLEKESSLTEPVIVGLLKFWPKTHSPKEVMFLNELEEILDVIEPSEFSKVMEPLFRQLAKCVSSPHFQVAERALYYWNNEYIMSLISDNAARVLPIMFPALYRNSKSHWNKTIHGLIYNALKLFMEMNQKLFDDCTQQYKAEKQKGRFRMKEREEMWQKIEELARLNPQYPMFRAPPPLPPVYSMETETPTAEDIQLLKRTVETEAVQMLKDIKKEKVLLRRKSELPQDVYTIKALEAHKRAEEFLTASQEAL
# Experiments:
# Assay in all cases: PRISMA enrichment of interactor (LFQ) in peptide spot vs all other peptide spots (log2 fold change); higher = stronger / more specific binding of the interactor to the peptide
# ABCF3, Q9NUQ8 = molecular target: ABCF3, Q9NUQ8
# Experimental: (§1)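 PRISMA: 15-aa overlapping tiles (offset 8 aa) of 60 microproteins, plus SOS1/GLUT1 control peptides, were spot-synthesized on cellulose membranes in triplicate. Membranes were incubated with benzonase-treated HEK293T lysate, and bound proteins were identified by LC-MS/MS with LFQ. Enrichment is the log2 fold change of each protein in one spot versus all other spots. Only interactors passing the significance cutoff are listed.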
# ACTL6A, O96019 = molecular target: ACTL6A, O96019
# Experimental: as §1
# ACTR2, P61160 = molecular target: ACTR2, P61160
# Experimental: as §1
# ADNP, Q9H2P0 = molecular target: ADNP, Q9H2P0
# Experimental: as §1
# BCOR, Q6W2J9 = molecular target: BCOR, Q6W2J9
# Experimental: as §1
# BLM, P54132 = molecular target: BLM, P54132
# Experimental: as §1
# BTF3, P20290 = molecular target: BTF3, P20290
# Experimental: as §1
# C1orf131, Q8NDD1 = molecular target: C1orf131, Q8NDD1
# Experimental: as §1
# CALR, P27797 = molecular target: CALR, P27797
# Experimental: as §1
# CCDC59, Q9P031 = molecular target: CCDC59, Q9P031
# Experimental: as §1
# CENPB, P07199 = molecular target: CENPB, P07199
# Experimental: as §1
# CGN, Q9P2M7 = molecular target: CGN, Q9P2M7
# Experimental: as §1
# DDX49, Q9Y6V7 = molecular target: DDX49, Q9Y6V7
# Experimental: as §1
# DHCR7, Q9UBM7 = molecular target: DHCR7, Q9UBM7
# Experimental: as §1
# DPM3, Q9P2X0 = molecular target: DPM3, Q9P2X0
# Experimental: as §1
# DSC1, Q08554 = molecular target: DSC1, Q08554
# Experimental: as §1
# EEF1AKNMT, Q8N6R0 = molecular target: EEF1AKNMT, Q8N6R0
# Experimental: as §1
# EXOSC10, Q01780 = molecular target: EXOSC10, Q01780
# Experimental: as §1
# FIP1L1, Q6UN15 = molecular target: FIP1L1, Q6UN15
# Experimental: as §1
# HP, P00738 = molecular target: HP, P00738
# Experimental: as §1
# KTI12, Q96EK9 = molecular target: KTI12, Q96EK9
# Experimental: as §1
# LENG1, Q96BZ8 = molecular target: LENG1, Q96BZ8
# Experimental: as §1
# MAGEB2, O15479 = molecular target: MAGEB2, O15479
# Experimental: as §1
# MBNL1, Q9NR56 = molecular target: MBNL1, Q9NR56
# Experimental: as §1
# MCM10, Q7L590 = molecular target: MCM10, Q7L590
# Experimental: as §1
# MPO, P05164 = molecular target: MPO, P05164
# Experimental: as §1
# MUC19, Q7Z5P9 = molecular target: MUC19, Q7Z5P9
# Experimental: as §1
# NCLN, Q969V3 = molecular target: NCLN, Q969V3
# Experimental: as §1
# NHP2, Q9NX24 = molecular target: NHP2, Q9NX24
# Experimental: as §1
# NQO2, P16083 = molecular target: NQO2, P16083
# Experimental: as §1
# OPA1, O60313 = molecular target: OPA1, O60313
# Experimental: as §1
# PDCD6IP, Q8WUM4 = molecular target: PDCD6IP, Q8WUM4
# Experimental: as §1
# PDIA3, P30101 = molecular target: PDIA3, P30101
# Experimental: as §1
# PPP2R5D, Q14738 = molecular target: PPP2R5D, Q14738
# Experimental: as §1
# PRPF8, Q6P2Q9 = molecular target: PRPF8, Q6P2Q9
# Experimental: as §1
# PTMS, P20962 = molecular target: PTMS, P20962
# Experimental: as §1
# RACGAP1, Q9H0H5 = molecular target: RACGAP1, Q9H0H5
# Experimental: as §1
# RAPGEF2, Q9Y4G8 = molecular target: RAPGEF2, Q9Y4G8
# Experimental: as §1
# RBM28, Q9NW13 = molecular target: RBM28, Q9NW13
# Experimental: as §1
# RCN1, Q15293 = molecular target: RCN1, Q15293
# Experimental: as §1
# RRBP1, Q9P2E9 = molecular target: RRBP1, Q9P2E9
# Experimental: as §1
# RRP1, P56182 = molecular target: RRP1, P56182
# Experimental: as §1
# SERF1B, O75920 = molecular target: SERF1B, O75920
# Experimental: as §1
# SOAT1, P35610 = molecular target: SOAT1, P35610
# Experimental: as §1
# TALDO1, P37837 = molecular target: TALDO1, P37837
# Experimental: as §1
# TPM3, P06753 = molecular target: TPM3, P06753
# Experimental: as §1
# UBE2N, P61088 = molecular target: UBE2N, P61088
# Experimental: as §1
# USP9X, Q93008 = molecular target: USP9X, Q93008
# Experimental: as §1
# WDR11, Q9BZH6 = molecular target: WDR11, Q9BZH6
# Experimental: as §1
binder,measurement,setting,value
SSLEGAAGTGKRDLQ [PEX2],PRISMA enrichment of interactor (log2),"ABCF3, Q9NUQ8",3.9
same,PRISMA enrichment of interactor (log2),"ACTL6A, O96019",4.82
same,PRISMA enrichment of interactor (log2),"ACTR2, P61160",5.69
same,PRISMA enrichment of interactor (log2),"ADNP, Q9H2P0",5.54
same,PRISMA enrichment of interactor (log2),"BCOR, Q6W2J9",6.53
same,PRISMA enrichment of interactor (log2),"BLM, P54132",6.87
same,PRISMA enrichment of interactor (log2),"BTF3, P20290",4.44
same,PRISMA enrichment of interactor (log2),"C1orf131, Q8NDD1",6.02
same,PRISMA enrichment of interactor (log2),"CALR, P27797",5.09
same,PRISMA enrichment of interactor (log2),"CCDC59, Q9P031",5.73
same,PRISMA enrichment of interactor (log2),"CENPB, P07199",4.72
same,PRISMA enrichment of interactor (log2),"CGN, Q9P2M7",6.44
same,PRISMA enrichment of interactor (log2),"DDX49, Q9Y6V7",4.76
same,PRISMA enrichment of interactor (log2),"DHCR7, Q9UBM7",5.57
same,PRISMA enrichment of interactor (log2),"DPM3, Q9P2X0",4.36
same,PRISMA enrichment of interactor (log2),"DSC1, Q08554",5.18
same,PRISMA enrichment of interactor (log2),"EEF1AKNMT, Q8N6R0",5.23
same,PRISMA enrichment of interactor (log2),"EXOSC10, Q01780",6.09
same,PRISMA enrichment of interactor (log2),"FIP1L1, Q6UN15",4.88
same,PRISMA enrichment of interactor (log2),"HP, P00738",4.85
same,PRISMA enrichment of interactor (log2),"KTI12, Q96EK9",4.81
same,PRISMA enrichment of interactor (log2),"LENG1, Q96BZ8",6.23
same,PRISMA enrichment of interactor (log2),"MAGEB2, O15479",7.44
same,PRISMA enrichment of interactor (log2),"MBNL1, Q9NR56",3.97
same,PRISMA enrichment of interactor (log2),"MCM10, Q7L590",4.47
same,PRISMA enrichment of interactor (log2),"MPO, P05164",5.11
same,PRISMA enrichment of interactor (log2),"MUC19, Q7Z5P9",7.15
same,PRISMA enrichment of interactor (log2),"NCLN, Q969V3",6.55
same,PRISMA enrichment of interactor (log2),"NHP2, Q9NX24",14.7
same,PRISMA enrichment of interactor (log2),"NQO2, P16083",4.49
same,PRISMA enrichment of interactor (log2),"OPA1, O60313",6.7
same,PRISMA enrichment of interactor (log2),"PDCD6IP, Q8WUM4",4.78
same,PRISMA enrichment of interactor (log2),"PDIA3, P30101",5.74
same,PRISMA enrichment of interactor (log2),"PPP2R5D, Q14738",5.19
same,PRISMA enrichment of interactor (log2),"PRPF8, Q6P2Q9",5.82
same,PRISMA enrichment of interactor (log2),"PTMS, P20962",3.91
same,PRISMA enrichment of interactor (log2),"RACGAP1, Q9H0H5",6.69
same,PRISMA enrichment of interactor (log2),"RAPGEF2, Q9Y4G8",11.2
same,PRISMA enrichment of interactor (log2),"RBM28, Q9NW13",4.95
same,PRISMA enrichment of interactor (log2),"RCN1, Q15293",7.45
same,PRISMA enrichment of interactor (log2),"RRBP1, Q9P2E9",5.58
same,PRISMA enrichment of interactor (log2),"RRP1, P56182",11.1
same,PRISMA enrichment of interactor (log2),"SERF1B, O75920",3.78
same,PRISMA enrichment of interactor (log2),"SOAT1, P35610",4.32
same,PRISMA enrichment of interactor (log2),"TALDO1, P37837",4.99
same,PRISMA enrichment of interactor (log2),"TPM3, P06753",3.92
same,PRISMA enrichment of interactor (log2),"UBE2N, P61088",7.54
same,PRISMA enrichment of interactor (log2),"USP9X, Q93008",4.9
same,PRISMA enrichment of interactor (log2),"WDR11, Q9BZH6",6.09

# A second format for part of the listing above.
binder | measurement | setting | value
SSLEGAAGTGKRDLQ [PEX2] | PRISMA enrichment of interactor (log2) | MCM10, Q7L590 | 4.47
same | PRISMA enrichment of interactor (log2) | MPO, P05164 | 5.11
same | PRISMA enrichment of interactor (log2) | MUC19, Q7Z5P9 | 7.15
same | PRISMA enrichment of interactor (log2) | NCLN, Q969V3 | 6.55
